Construct, isoform or probe ends are uncertain for at least one entry. For part of these data: Tags and fusion partners may be left off the protein sequences shown.
Experiments:
Assay in all cases: protein microarray
Settings in all cases: 10-fold cold unmethylated competitor; 5mC at CpG (SssI, both strands); recombinant protein; protein details: GST (N-terminal); label: Cy5
[1] = biological target: ZNF114 (Homo sapiens) (UniProt Q8NC26)
[2] = biological target: T1, SCAPER (Homo sapiens) (UniProt Q9BY12)
T1 sequence (looked up, limits assumed): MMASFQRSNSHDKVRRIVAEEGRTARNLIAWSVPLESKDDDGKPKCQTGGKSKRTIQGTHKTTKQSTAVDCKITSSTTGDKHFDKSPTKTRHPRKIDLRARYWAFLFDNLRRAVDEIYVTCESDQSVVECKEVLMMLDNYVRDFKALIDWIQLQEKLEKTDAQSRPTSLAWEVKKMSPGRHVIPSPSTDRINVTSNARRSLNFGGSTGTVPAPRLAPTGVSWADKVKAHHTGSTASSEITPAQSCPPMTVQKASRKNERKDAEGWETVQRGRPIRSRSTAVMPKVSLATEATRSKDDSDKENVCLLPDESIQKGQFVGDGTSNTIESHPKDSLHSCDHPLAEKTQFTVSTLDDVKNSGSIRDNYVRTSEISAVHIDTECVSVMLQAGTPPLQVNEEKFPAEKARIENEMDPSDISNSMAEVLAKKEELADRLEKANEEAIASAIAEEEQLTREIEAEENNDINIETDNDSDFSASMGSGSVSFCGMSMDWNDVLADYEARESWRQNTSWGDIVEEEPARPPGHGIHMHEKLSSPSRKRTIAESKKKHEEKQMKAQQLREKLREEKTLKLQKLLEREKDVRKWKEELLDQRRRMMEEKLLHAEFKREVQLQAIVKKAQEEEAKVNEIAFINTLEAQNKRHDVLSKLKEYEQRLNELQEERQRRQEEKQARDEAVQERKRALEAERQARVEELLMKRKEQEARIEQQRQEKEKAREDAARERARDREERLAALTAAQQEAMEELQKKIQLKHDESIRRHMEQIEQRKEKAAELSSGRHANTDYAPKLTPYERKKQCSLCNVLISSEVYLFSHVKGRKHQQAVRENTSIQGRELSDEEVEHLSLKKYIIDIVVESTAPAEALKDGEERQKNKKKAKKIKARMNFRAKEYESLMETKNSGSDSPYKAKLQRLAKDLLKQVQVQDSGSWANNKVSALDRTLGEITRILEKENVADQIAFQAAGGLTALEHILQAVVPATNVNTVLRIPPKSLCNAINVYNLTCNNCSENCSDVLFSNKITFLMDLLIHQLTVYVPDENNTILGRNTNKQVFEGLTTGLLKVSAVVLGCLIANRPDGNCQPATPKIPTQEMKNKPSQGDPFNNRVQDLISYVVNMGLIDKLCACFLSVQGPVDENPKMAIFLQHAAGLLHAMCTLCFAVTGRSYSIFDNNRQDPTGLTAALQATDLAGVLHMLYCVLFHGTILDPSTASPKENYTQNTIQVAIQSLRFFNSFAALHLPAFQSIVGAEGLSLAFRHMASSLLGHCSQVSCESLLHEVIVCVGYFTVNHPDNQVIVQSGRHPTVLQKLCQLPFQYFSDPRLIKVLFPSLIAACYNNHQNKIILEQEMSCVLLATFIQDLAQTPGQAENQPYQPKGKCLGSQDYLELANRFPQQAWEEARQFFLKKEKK

Sequences of proteins named here, by UniProt entry; tags and fusion partners are left off. A change or cut given only in a name is not applied to a line headed by its entry.
UniProt Q8NC26: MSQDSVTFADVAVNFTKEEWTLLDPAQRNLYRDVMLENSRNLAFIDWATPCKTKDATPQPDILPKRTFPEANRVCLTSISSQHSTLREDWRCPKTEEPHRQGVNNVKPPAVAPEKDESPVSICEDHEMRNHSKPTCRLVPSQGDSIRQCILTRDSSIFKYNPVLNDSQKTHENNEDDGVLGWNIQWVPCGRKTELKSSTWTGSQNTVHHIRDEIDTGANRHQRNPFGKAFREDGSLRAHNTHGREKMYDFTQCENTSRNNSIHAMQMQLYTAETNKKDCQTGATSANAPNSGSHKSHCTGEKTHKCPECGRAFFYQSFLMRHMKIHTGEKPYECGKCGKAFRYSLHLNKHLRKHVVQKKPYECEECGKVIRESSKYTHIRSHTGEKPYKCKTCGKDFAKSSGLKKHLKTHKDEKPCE
UniProt P37231: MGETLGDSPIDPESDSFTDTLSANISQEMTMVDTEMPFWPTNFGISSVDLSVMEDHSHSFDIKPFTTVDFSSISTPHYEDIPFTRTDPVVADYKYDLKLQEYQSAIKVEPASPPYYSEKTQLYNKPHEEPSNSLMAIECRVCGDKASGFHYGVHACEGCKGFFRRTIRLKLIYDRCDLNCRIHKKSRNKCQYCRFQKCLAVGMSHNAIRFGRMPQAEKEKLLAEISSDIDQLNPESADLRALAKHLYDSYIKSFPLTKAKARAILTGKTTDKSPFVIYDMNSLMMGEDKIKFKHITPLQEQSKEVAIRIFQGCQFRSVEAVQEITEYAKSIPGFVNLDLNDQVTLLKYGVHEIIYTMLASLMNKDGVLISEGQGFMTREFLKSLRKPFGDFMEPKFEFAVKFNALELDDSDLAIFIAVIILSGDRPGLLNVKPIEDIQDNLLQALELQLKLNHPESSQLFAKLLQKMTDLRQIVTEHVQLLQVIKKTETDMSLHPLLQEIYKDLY
UniProt Q9BWM5: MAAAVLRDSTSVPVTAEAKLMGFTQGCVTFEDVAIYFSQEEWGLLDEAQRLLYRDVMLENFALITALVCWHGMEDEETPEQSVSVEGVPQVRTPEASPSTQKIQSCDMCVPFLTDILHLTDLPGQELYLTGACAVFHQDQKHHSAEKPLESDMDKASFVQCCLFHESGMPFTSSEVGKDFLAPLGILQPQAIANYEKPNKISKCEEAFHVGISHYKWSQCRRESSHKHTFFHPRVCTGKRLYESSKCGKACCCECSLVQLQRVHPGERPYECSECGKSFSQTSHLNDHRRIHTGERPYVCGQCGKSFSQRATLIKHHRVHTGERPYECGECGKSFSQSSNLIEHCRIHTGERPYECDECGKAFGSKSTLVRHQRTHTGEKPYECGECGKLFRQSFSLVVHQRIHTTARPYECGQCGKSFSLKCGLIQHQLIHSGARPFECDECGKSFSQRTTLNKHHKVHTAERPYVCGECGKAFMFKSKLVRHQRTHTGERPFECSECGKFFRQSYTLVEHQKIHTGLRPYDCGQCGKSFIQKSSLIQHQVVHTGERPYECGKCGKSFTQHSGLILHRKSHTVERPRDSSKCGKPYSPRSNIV
UniProt P20719: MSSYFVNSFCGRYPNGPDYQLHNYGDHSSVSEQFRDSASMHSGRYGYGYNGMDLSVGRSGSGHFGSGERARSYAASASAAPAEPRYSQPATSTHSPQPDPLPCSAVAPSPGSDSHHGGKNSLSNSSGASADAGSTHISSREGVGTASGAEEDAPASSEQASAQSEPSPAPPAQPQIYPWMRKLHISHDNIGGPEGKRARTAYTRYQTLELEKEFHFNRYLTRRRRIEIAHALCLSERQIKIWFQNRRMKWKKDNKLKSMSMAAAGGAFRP
UniProt O00716: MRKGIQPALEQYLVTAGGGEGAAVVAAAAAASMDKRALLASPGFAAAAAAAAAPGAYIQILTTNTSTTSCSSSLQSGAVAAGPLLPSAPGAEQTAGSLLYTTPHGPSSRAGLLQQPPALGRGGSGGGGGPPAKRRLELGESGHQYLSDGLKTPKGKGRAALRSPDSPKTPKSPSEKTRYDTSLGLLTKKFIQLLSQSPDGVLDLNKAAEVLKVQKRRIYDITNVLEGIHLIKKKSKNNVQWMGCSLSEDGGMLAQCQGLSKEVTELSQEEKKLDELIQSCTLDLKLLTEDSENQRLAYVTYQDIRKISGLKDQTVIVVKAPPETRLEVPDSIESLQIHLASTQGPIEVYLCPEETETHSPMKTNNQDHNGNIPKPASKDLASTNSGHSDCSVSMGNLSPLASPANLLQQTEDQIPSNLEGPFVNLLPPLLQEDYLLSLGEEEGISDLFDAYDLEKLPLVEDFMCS
UniProt Q8IW36: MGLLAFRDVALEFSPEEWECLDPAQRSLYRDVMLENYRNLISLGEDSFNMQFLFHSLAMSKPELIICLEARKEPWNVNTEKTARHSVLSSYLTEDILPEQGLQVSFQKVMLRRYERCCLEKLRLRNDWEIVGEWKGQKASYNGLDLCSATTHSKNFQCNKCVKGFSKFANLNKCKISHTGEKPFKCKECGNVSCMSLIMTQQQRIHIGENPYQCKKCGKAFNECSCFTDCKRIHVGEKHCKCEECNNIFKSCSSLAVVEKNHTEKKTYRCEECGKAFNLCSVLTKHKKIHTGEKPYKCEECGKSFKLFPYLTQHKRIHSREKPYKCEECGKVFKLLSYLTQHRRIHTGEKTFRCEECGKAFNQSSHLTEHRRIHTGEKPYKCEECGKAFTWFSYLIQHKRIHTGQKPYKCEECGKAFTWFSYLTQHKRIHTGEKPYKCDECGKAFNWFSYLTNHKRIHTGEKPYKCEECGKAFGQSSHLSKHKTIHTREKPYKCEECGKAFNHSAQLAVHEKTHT
UniProt P43694: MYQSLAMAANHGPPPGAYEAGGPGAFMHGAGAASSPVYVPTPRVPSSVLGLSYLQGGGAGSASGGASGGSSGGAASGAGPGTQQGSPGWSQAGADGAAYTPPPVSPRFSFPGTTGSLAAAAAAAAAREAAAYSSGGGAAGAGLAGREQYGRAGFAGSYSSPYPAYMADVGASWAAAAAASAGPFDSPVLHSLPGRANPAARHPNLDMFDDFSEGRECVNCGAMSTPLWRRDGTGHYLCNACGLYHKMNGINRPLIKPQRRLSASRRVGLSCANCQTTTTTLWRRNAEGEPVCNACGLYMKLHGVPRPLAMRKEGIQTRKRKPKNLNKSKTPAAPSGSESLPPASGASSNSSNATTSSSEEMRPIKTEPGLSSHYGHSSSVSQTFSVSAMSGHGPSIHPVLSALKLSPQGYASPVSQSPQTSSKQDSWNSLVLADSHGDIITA

[3] = biological target: PPARG (Homo sapiens) (UniProt P37231)
[4] = biological target: ZNF416 (Homo sapiens) (UniProt Q9BWM5)
[5] = biological target: HOXA5 (Homo sapiens) (UniProt P20719)
[6] = biological target: E2F3 (Homo sapiens) (UniProt O00716)
[7] = biological target: ZNF695 (Homo sapiens) (UniProt Q8IW36)
[8] = biological target: GATA4 (Homo sapiens) (UniProt P43694)

Measured: binding result

AGGCGCGTTTAGGCGCGCCCTATAGTGAGTGCTATTA (double strand) [M296]
binds: [1]

AGATATCGGGGAGATATCGCCCTATAGTGAGTGCTATTA (double strand) [M427]
binds: [2] | [3] | [4] | [1] | [5]

AACTCCCATTAGCGTTAATGGCCCAACTCCCATTAGCGTTAATGGCCCTATAGTGAGTGCTATTA (double strand) [M134]
binds: [4] | [6] | [5]

CGCGCACAAACGCGCACCCCTATAGTGAGTGCTATTA (double strand) [M75]
binds: [1] | [5]

AGGACGATAAAAGGACGATCCCTATAGTGAGTGCTATTA (double strand) [M429]
binds: [4] | [1] | [5]

CTGCGGCAAACTGCGGCCCCTATAGTGAGTGCTATTA (double strand) [M295]
binds: [4] | [1] | [6] | [7]

GCGCTTGCGCATGCGAAAGCGCTTGCGCATGCGCCCTATAGTGAGTGCTATTA (double strand) [M48]
binds: [4] | [1] | [5]

CCGGGCCAAACCGGGCCCCCTATAGTGAGTGCTATTA (double strand) [M77]
not listed: [3] | [7]
binds: all other assays above

ACGCGGCTTTACGCGGCCCCTATAGTGAGTGCTATTA (double strand) [M314]
binds: [1] | [5]

AGGAGCTCGAGTCCAAAAGGAGCTCGAGTCCCCCTATAGTGAGTGCTATTA (double strand) [M239]
binds: [4] | [8] | [1] | [7]

CACATCTGGACAGATGTGGGCGAAACACATCTGGACAGATGTGGGCGCCCTATAGTGAGTGCTATTA (double strand) [M47]
not listed: [7] | [8]
binds: all other assays above

GAGGCGCAAAGAGGCGCCCCTATAGTGAGTGCTATTA (double strand) [M290]
binds: [4] | [1] | [7]

AATCCGACTCCCAATCCGACTCCCTATAGTGAGTGCTATTA (double strand) [M289]
binds: [4] | [1] | [7]

CCCGATAGAAACCCGATAGCCCTATAGTGAGTGCTATTA (double strand) [M430]
binds: [2] | [3] | [4] | [1] | [5]

ACGTGATCTCCCACGTGATCTCCCTATAGTGAGTGCTATTA (double strand) [M253]
binds: [4] | [1] | [6] | [7]

TCAGCACCACGGACAGAAATCAGCACCACGGACAGCCCTATAGTGAGTGCTATTA (double strand) [M137]
not listed: [3]
binds: all other assays above

ATCGTGTCAAAATCGTGTCCCCTATAGTGAGTGCTATTA (double strand) [M421]
binds: [2] | [4] | [8] | [1] | [5]

TTTCCCGCCAAATTTCCCGCCCCCTATAGTGAGTGCTATTA (double strand) [M236]
binds: [4] | [8] | [1] | [6] | [7]

ATTGGACGTTTATTGGACGCCCTATAGTGAGTGCTATTA (double strand) [M418]
binds: [2] | [4] | [8] | [1] | [5]

GACCACGTGGTCAAAGACCACGTGGTCCCCTATAGTGAGTGCTATTA (double strand) [M21]
binds: [4] | [1] | [7]

ACTTCGCTTTTACTTCGCTCCCTATAGTGAGTGCTATTA (double strand) [M423]
binds: [2] | [4] | [1] | [5]

GCGTCTTACAAAGCGTCTTACCCCTATAGTGAGTGCTATTA (double strand) [M256]
binds: [4] | [1] | [7]

CCGGAAGTCCCCCGGAAGTCCCTATAGTGAGTGCTATTA (double strand) [M60]
not listed: [2] | [3]
binds: all other assays above

GCGCCAATGAAAGCGCCAATGCCCTATAGTGAGTGCTATTA (double strand) [M259]
binds: [4] | [1] | [7]

GGCCGTTCTTTTGGCCGTTCTCCCTATAGTGAGTGCTATTA (double strand) [M390]
binds: [2] | [4] | [1] | [7]

ACTTCCGTTCCCACTTCCGTTCCCTATAGTGAGTGCTATTA (double strand) [M260]
binds: [4] | [1] | [7]

CGCATAAACCCCGCATAAACCCTATAGTGAGTGCTATTA (double strand) [M460]
binds: [4] | [1] | [5]

GGAAATCCCGCAAAGGAAATCCCGCCCCTATAGTGAGTGCTATTA (double strand) [M223]
binds: [4] | [1] | [7]

GCTTTTACGGGGGCTTTTACGCCCTATAGTGAGTGCTATTA (double strand) [M412]
binds: [4] | [1] | [5]

TCTCGCGAGAAAATCTCGCGAGACCCTATAGTGAGTGCTATTA (double strand) [M199]
binds: [4]

CCCGGAAAGAAACCCGGAAAGCCCTATAGTGAGTGCTATTA (double strand) [M251]
binds: [4] | [1] | [6] | [7]

CTTTCGATTTCCCCTTTCGATTTCCCTATAGTGAGTGCTATTA (double strand) [M248]
binds: [4] | [1] | [6] | [7]

CCGAAGACGAAACCGAAGACGCCCTATAGTGAGTGCTATTA (double strand) [M263]
binds: [4] | [6]

TGCGCAACAAAATGCGCAACACCCTATAGTGAGTGCTATTA (double strand) [M284]
binds: [1]

GTTGCCGGGCAACAAAGTTGCCGGGCAACCCCTATAGTGAGTGCTATTA (double strand) [M226]
binds: [4] | [1] | [7]

Reference: article PMC3762332
